# Results are given in words; binding and its absence hold for the method and conditions named. In cells and extracts the contact can be indirect. Some entries that bind do so weakly or less than the wild type.
# By UniProt entry, the sequences of proteins in these tests, tags left out.
# UniProt P31596: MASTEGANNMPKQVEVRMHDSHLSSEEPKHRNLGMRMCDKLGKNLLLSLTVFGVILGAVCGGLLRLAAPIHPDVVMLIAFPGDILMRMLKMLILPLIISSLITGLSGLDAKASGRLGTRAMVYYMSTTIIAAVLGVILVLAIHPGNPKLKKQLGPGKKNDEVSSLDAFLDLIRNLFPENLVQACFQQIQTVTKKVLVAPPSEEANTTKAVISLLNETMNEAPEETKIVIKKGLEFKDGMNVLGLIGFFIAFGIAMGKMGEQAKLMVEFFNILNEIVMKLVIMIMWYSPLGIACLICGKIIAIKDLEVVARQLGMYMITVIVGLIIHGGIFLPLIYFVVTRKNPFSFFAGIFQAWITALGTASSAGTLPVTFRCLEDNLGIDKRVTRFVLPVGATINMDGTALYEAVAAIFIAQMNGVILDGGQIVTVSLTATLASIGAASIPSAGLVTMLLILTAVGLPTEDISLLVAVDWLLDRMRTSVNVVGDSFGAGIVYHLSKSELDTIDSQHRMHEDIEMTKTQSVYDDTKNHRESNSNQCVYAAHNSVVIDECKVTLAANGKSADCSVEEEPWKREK
# Biological target: GST-PKCα (UniProt P05696)
# Assay: pull-down; GST pull-down; bait protein GST-PKCα, prey protein HA-GLT-1; immunoblots of the precipitates
substance,measurement,value
HA-GLT-1 (from UniProt P31596 1-573),binding,binds
